No dose or concentration is given here for some results.
Test: Sensory test: stimulative smell associated with acetic acid and viscosity (toothpaste with karaya gum)
Assay type: in vivo
Details: 0.0000001 part by weight of Compound 3 to 1 part, 9 panellers
Method: Sorbitol was heated to 70°C, followed by adding sodium saccharine and silica slowly thereto and by stirring well. Then, water previously heated to 70°C, karaya gum, sodium lauryl sulfate and sodium hydroxide were added sequentially while stirring. Finally, flavor was added thereto to prepare toothpaste as a control. Alternatively, flavone derivative (I)-containing toothpaste was prepared by adding 0.0000001 part by weight of Compound 3 of the flavone derivative (I) to 1 part by weight of similarly prepared toothpaste.
Sensory tests for obtained toothpaste were conducted by 9 panellers comprised of 6 males and 3 females.

Question: Which results are given for `COc1ccc(-c2cc(=O)c3c(OC)c(OC)c(OC)c(OC)c3o2)cc1` [Compound 3, 4',5,6,7,8-pentamethoxyflavone]?
Answer: Viscosity: Those who sensed difference exists: 0 number of people; Viscosity: Those who sensed no difference: 9 number of people
